Experimental data from PubChem BioAssay AID192 (DTP/NCI, 2004).
The list does not hold the whole screen: it is rich in T/C values a quarter to a half above the control, in often repeated tests (any T/C) and in doses without a T/C. Further doses and runs are listed elsewhere. T/C gives the treated animals as a percentage of the vehicle group. Some entries give survivors of the animals treated and no T/C: the source files T/C as zero there, which appears to mark a toxic dose or a test without result, not a measured value. Some survivor counts are full or nearly so, which does not show that the dose was tolerated: the source hardly ever lists a survival T/C far under the control, and the zero likely stands for such cases as well. Survivors were counted at the toxicity check, usually on the fifth day, unless a day is given; later deaths do not show. Schedules are NCI's codes, taken here to give the interval after Q, in days (D) or hours (H), and the number of doses after X. For survival time, the PubChem record calls one and a half times the control and up active, and a quarter to a half above the control has no call in these data; cut-offs in other NCI protocols can differ. Some T/C values carry the count of animals alive at the toxicity check (mostly the fifth day); where none is given, no animal had died by that day. Some entries hold several experiments; the values are given in rising order. Bridge positions count the residues as written; N and C are the ends. Square brackets hold non-standard residues; d marks the D form. Peptide text beside a SMILES is read from it. NMeV = CN[CH](C(=O)O)C(C)C; Sar = CNCC(=O)O

Test system: BDF1 mice, B16 melanoma ip, median survival T/C
Experiment: NCI In Vivo Anticancer Drug Screen. Data for tumor model B16 Melanoma (intraperitoneal) in B6D2F1 (BDF1) mice
Conditions: T/C endpoint: median survival time, higher T/C = longer survival
Procedure, shortened: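 Each result divides a survival or tumor-size measurement in the compound-treated group by the same measurement in the vehicle group.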

[1] = dose: 100.0 mg/kg/injection, schedule: Q01DX009 (ip), vehicle: Klucel (hydroxypropylcellulose) (HPC)
[2] = dose: 200.0 mg/kg/injection, schedule: Q01DX009 (ip), vehicle: Klucel (hydroxypropylcellulose) (HPC)
[3] = dose: 200.0 mg/kg/injection, schedule: Q01DX009 (ip), vehicle: saline with Tween-80
[4] = dose: 400.0 mg/kg/injection, schedule: Q01DX009 (ip), vehicle: Klucel (hydroxypropylcellulose) (HPC)
[5] = dose: 25.0 mg/kg/injection, schedule: Q01DX009 (ip), vehicle: saline with Tween-80

CC(C)C1NC(=O)C(N)C(C)OC(=O)C(C(C)C)N(C)C(=O)CN(C)C(=O)C2CCCN2C1=O (configuration not stated) (tested in a mixture with another compound) (H-TVP[Sar][NMeV]; ester 1-C; configuration not given here)
survivor count (dose: 0.33 mg/kg/injection, schedule: Q01DX009 (ip), vehicle: water): 10 of 10
survivor count (dose: 0.5 mg/kg/injection, schedule: Q01DX009 (ip), vehicle: water): 10 of 10
survivor count (dose: 0.75 mg/kg/injection, schedule: Q01DX009 (ip), vehicle: water): 9 of 10
T/C (dose: 100.0 micrograms/kg/injection, schedule: Q01DX009 (ip), vehicle: saline + alcohol): 132 % of control
T/C (dose: 150.0 micrograms/kg/injection, schedule: Q04DX003 (ip), vehicle: saline + alcohol): 136 % of control
T/C (dose: 300.0 micrograms/kg/injection, schedule: Q04DX003 (ip), vehicle: saline + alcohol): 144 % of control
T/C (dose: 600.0 micrograms/kg/injection, schedule: Q04DX003 (ip), vehicle: saline + alcohol): 131 and 134 % of control [9 of 10 alive]

Nc1nc(SCc2ccccc2Cl)c2ncn(C3OC(CO)C(O)C3O)c2n1 (configuration not stated)
survivor count [1]: 10 of 10
survivor count (dose: 100.0 mg/kg/injection, schedule: Q01DX009 (ip), vehicle: saline with Tween-80): 10 of 10
survivor count [2]: 10 of 10
survivor count [3]: 10 of 10
survivor count [4]: 9 of 10

Cc1cccc2c(Nc3ccc(NS(C)(=O)=O)cc3)c3ccc([N+](=O)[O-])cc3nc12
T/C (dose: 5.3 mg/kg/injection, schedule: Q01DX009 (ip), vehicle: saline with Tween-80): 130 % of control

Cc1cc(OCc2nc(N)nc(N)c2-c2ccc(Cl)c(Cl)c2)ccc1NS(=O)(=O)c1cccc(S(=O)(=O)F)c1
T/C (dose: 176.0 mg/kg/injection, schedule: Q04DX003 (ip), vehicle: saline): 133 % of control
T/C (dose: 264.0 mg/kg/injection, schedule: Q04DX003 (ip), vehicle: saline): 136 % of control

CCCCC(CC)CCC(O)CCC(CC)CC (configuration not stated)
survivor count [2]: 10 of 10

Cc1ccc(NC(=O)COc2ccc(Cl)cc2)cc1Cl
survivor count [1]: 10 of 10
survivor count [2]: 10 of 10
survivor count [4]: 10 of 10

C=C/C(C)=C/[C@H](C)C(=O)C[C@H](O)CC1CC(=O)NC(=O)C1
T/C (dose: 50.0 mg/kg/injection, schedule: Q01DX009 (ip), vehicle: saline with Tween-80): 128 % of control [9 of 10 alive]
survivor count [3]: 6 of 10

COCCOC1=C(N2CC2)C(=O)C(OCCOC)=C(N2CC2)C1=O
T/C (dose: 1.0 mg/kg/injection, schedule: Q01DX009 (ip), vehicle: saline): 129 % of control
T/C (dose: 2.0 mg/kg/injection, schedule: Q01DX009 (ip), vehicle: saline): 136 % of control
T/C (dose: 4.0 mg/kg/injection, schedule: Q01DX009 (ip), vehicle: saline): 129 % of control
survivor count (dose: 8.0 mg/kg/injection, schedule: Q01DX009 (ip), vehicle: saline): 10 of 10
survivor count (dose: 16.0 mg/kg/injection, schedule: Q01DX009 (ip), vehicle: saline): 5 of 10
survivor count (dose: 32.0 mg/kg/injection, schedule: Q01DX009 (ip), vehicle: saline): 7 of 10
survivor count (dose: 64.0 mg/kg/injection, schedule: Q01DX009 (ip), vehicle: saline): 0 of 10

CC[n+]1c(C)sc2cc3c(cc21)OCO3
survivor count (dose: 100.0 mg/kg/injection, schedule: Q01DX009 (ip), vehicle: carboxymethylcellulose (CMC)): 6 of 10

CC[CH2][Pb]([CH2]CC)([CH2]CC)[O]C(=O)C(F)(F)F
survivor count (dose: 6.25 mg/kg/injection, schedule: Q01DX009 (ip), vehicle: saline with Tween-80): 9 of 10
survivor count (dose: 12.5 mg/kg/injection, schedule: Q01DX009 (ip), vehicle: saline with Tween-80): 6 of 10
survivor count [5]: 0 of 10

NC(CSC(c1ccccc1)(c1ccccc1)c1ccccc1)C(=O)O (configuration not stated)
T/C (dose: 25.0 mg/kg/injection, schedule: Q01DX009 (ip), vehicle: saline): 125 and 147 % of control
survivor count (dose: 100.0 mg/kg/injection, schedule: Q01DX009 (ip), vehicle: saline): 6 of 6
survivor count (dose: 200.0 mg/kg/injection, schedule: Q01DX009 (ip), vehicle: saline): 6 of 6

CN(C)CCC=C1c2ccccc2CCc2ccccc21
survivor count (dose: 50.0 mg/kg/injection, schedule: Q01DX009 (ip), vehicle: saline): 6 of 10

Cc1ccc(C)c(C2NC(=O)c3ccccc3N2)c1 (configuration not stated)
T/C [4]: 133 % of control

O=C(O)c1cc2ccccc2o1
T/C [5]: 125 % of control [9 of 10 alive]

Cc1ccc(C(=O)NC2C(=O)NC(C(C)C)C(=O)N3CCCC3C(=O)N(C)CC(=O)N(C)C(C(C)C)C(=O)OC2C)c2c1Oc1c(c(C(=O)NC3C(=O)NC(C(C)C)C(=O)N4CCCC4C(=O)N(C)CC(=O)N(C)C(C(C)C)C(=O)OC3C)c3nc(-c4ccccc4)c(=O)oc3c1C)N2 (configuration not stated)
T/C (dose: 0.25 mg/kg/injection, schedule: Q04DX003 (ip), vehicle: water): 144 % of control
survivor count (dose: 2.0 mg/kg/injection, schedule: Q04DX003 (ip), vehicle: saline + alcohol): 10 of 10
survivor count (dose: 2.0 mg/kg/injection, schedule: Q04DX003 (ip), vehicle: water): 10 of 10
survivor count (dose: 4.0 mg/kg/injection, schedule: Q04DX003 (ip), vehicle: saline + alcohol): 10 of 10

CN(C)N=Nc1ccccc1C(=O)NC#N
survivor count (dose: 75.0 mg/kg/injection, schedule: Q01DX009 (ip), vehicle: Klucel (hydroxypropylcellulose) (HPC)): 1 of 10
survivor count (dose: 150.0 mg/kg/injection, schedule: Q01DX009 (ip), vehicle: Klucel (hydroxypropylcellulose) (HPC)): 0 of 10
survivor count (dose: 300.0 mg/kg/injection, schedule: Q01DX009 (ip), vehicle: Klucel (hydroxypropylcellulose) (HPC)): 0 of 10

O=S1(=O)C=CCCC=C1
survivor count [1]: 0 of 10
survivor count [2]: 0 of 10
